These are yes or no findings as the source states them, for the method shown. In cells and extracts the contact can be indirect. Some entries that bind do so weakly or less than the wild type.
Experiments:
[1] = molecular target: endogenous DDX39B (human (endogenous in CRC cells)) (UniProt Q13838); test: co-IP; endogenous proteins immunoprecipitated from CRC cell lysates; for some pairs cells stably expressing mock or DDX39B, or treated with 150 ng/ml EGF
[2] = molecular target: endogenous DDX39B (human (endogenous in CRC cells)) (UniProt Q13838); test: co-IP; immunoprecipitation showing the pair in both the cytoplasm and the nucleus (Supplementary Fig. 6c); methods not shown
[3] = molecular target: endogenous PKM2 (human (endogenous in CRC cells)) (UniProt P14618); test: co-IP; endogenous proteins immunoprecipitated from CRC cell lysates; for some pairs cells stably expressing mock or DDX39B, or treated with 150 ng/ml EGF

Sequences of proteins named here, by UniProt entry; tags and fusion partners are left off. A change or cut given only in a name is not applied to a line headed by its entry. A line that says so, or that is headed by a name, gives the form on record, which may keep a tag or linker.
UniProt Q13838: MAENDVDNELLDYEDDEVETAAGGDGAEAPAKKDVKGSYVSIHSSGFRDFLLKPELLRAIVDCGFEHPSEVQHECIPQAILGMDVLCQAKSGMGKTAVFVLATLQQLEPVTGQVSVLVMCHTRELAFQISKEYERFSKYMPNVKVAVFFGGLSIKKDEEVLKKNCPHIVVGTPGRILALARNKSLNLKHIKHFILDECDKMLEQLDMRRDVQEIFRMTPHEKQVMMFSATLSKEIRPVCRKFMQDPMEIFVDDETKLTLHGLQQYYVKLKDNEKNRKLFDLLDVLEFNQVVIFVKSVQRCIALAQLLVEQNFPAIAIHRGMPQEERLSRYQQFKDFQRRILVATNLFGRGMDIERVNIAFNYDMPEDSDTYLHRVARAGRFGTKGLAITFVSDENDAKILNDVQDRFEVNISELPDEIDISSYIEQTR
UniProt P14618: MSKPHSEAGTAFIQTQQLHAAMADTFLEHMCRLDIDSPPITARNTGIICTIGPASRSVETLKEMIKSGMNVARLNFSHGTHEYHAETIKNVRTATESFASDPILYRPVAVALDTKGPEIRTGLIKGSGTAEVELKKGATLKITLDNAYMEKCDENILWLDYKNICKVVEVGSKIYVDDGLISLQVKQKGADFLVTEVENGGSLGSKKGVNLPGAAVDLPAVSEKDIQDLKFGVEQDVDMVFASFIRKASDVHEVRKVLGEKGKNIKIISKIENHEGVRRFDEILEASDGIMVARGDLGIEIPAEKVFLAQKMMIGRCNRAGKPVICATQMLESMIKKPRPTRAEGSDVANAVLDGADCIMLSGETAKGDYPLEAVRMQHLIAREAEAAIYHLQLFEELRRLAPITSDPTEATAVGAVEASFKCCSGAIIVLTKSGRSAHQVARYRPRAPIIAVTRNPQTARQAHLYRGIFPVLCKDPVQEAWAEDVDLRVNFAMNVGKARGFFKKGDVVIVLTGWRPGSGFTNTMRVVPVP
PKM1 (P14618-2, form named): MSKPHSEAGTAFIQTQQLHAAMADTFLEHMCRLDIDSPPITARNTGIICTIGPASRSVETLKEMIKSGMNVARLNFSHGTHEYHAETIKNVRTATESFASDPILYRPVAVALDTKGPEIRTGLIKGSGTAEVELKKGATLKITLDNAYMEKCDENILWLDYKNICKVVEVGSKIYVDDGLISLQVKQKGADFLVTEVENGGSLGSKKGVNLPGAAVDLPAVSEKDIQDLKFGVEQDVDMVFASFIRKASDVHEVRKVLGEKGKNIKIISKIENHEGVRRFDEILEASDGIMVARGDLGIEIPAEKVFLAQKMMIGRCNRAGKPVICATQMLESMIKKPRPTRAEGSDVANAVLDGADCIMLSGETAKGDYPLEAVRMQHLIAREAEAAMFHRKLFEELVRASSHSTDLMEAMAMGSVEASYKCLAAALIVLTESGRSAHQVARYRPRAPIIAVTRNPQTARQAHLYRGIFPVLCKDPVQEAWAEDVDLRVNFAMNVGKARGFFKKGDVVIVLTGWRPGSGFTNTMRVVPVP
UniProt P04406: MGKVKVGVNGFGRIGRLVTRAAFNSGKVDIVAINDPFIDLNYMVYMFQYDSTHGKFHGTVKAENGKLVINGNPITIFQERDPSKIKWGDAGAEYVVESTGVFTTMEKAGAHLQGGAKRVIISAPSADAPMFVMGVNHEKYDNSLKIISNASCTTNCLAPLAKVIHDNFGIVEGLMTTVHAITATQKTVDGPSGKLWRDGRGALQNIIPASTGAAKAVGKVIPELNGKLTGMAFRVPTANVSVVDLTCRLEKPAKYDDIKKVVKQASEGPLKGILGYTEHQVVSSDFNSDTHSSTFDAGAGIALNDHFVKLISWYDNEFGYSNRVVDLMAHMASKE
UniProt Q9UNE7: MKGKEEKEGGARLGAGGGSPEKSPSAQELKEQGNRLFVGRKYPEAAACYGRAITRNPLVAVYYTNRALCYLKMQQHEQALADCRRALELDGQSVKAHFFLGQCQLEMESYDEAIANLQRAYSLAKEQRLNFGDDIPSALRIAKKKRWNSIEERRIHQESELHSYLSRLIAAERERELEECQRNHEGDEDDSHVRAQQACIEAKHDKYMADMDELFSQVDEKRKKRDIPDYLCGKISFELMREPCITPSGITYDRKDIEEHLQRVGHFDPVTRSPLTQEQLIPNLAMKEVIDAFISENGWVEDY

## GAPDH (from UniProt P04406 1-335)
[1]
  binding: binds

## PKM1 (from UniProt P14618-2 1-531)
[1]
  binding: binds

## endogenous PKM2 (from UniProt P14618 1-531)
[2]
  binding: binds
[1]
  binding: binds

## endogenous STUB1 (from UniProt Q9UNE7 1-303)
[3]
  binding: binds

Reference: paper PMC9381590
